Reference: the supplement of paper PMC3334620
Whole data set: some 33,000 sequences, median “E-score (-0.5 to 0.5)” near -8e-05, cut for the highest 2% near 0.23. The list shows a part of the results.

Biological target: T1, Nrg2 (UniProt P38082)
T1 sequence: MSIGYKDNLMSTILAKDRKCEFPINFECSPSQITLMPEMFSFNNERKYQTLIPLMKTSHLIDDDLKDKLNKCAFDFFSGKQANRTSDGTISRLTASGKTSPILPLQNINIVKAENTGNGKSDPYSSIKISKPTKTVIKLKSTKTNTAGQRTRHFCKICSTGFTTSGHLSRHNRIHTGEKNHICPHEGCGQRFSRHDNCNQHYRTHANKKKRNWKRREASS
Assay: PBM E-score (8-mer binding enrichment) (E-score (-0.5 to 0.5)); higher = stronger / more preferred TF binding
Settings: protein concentration: 100 nM; construct: GST-full length
Summary of the method: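 Detection of bound protein used fluorescent anti-GST, with scans normalised by masliner. The proteins were GST-tagged yeast transcription factors applied at about 100-200 nM to universal all-10-mer Agilent arrays made double-stranded by primer extension. Each ungapped eight-base word, pooled with its reverse complement, was scored with an E-score from the Universal PBM Analysis Suite.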

First: AAAATTTT
Second: ATTTGCTA
The “PBM E-score” value of the first is lower: -0.0254 for the first, 0.0846 for the second.

Compared with CGAAAAAA, ACGCTGCG is lower in “PBM E-score” value: 0.0964 for the first, -0.0363 for the second.

First: CTTACCTC
Second: ATCCCAGC
The “PBM E-score” value of the first is lower: -0.214 for the first, -0.158 for the second.

Compared with TCAGAGGA, CGCTGCAG is higher in “PBM E-score” value: -0.0702 for the first, 0.0432 for the second.

Going from CAAGGCCG to AAGTAGTC, the “PBM E-score” value rises from -0.0785 to 0.0558.

Compared with GATGTTAC, GGCATAGA is higher in “PBM E-score” value: -0.0708 for the first, 0.0809 for the second.

First: AGCCACTC
Second: CCGTTTCC
The “PBM E-score” value of the first is higher: -0.109 for the first, -0.11 for the second.

First: CGTCCCTC
Second: AAGTGGCT
The “PBM E-score” value of the first is lower: -0.0916 for the first, 0.0021 for the second.

First: GCAGACTA
Second: CCGAAAGC
The “PBM E-score” value of the first is higher: -0.0747 for the first, -0.292 for the second.

Going from TAACGTGA to GGGATGGA, the “PBM E-score” value rises from -0.232 to 0.091.

First: CATGTTCG
Second: GCATATCA
The “PBM E-score” value of the first is lower: -0.0368 for the first, 0.256 for the second.

Going from GCCTTTCC to GGAAACCC, the “PBM E-score” value rises from -0.201 to 0.146.

Going from AAACCAAT to GCGTTAAA, the “PBM E-score” value falls from 0.165 to -0.0934.

Compared with CAACATGA, CAGCTAAA is lower in “PBM E-score” value: 0.0641 for the first, 0.0375 for the second.

Going from GGGGAGAC to AACGTATT, the “PBM E-score” value rises from -0.171 to 0.0259.

Going from AGCAGTAT to CTTCACGC, the “PBM E-score” value rises from 0.141 to 0.154.

Going from CTCCCGAA to ATCCACTA, the “PBM E-score” value rises from -0.301 to 0.0691.

Compared with CACAGTGC, AAAATGCA is lower in “PBM E-score” value: -0.00765 for the first, -0.0417 for the second.

First: AACTCAGA
Second: CCTTTCCG
The “PBM E-score” value of the first is higher: 0.0624 for the first, -0.116 for the second.

First: AACGTGAT
Second: CCGATTGA
The “PBM E-score” value of the first is lower: -0.1 for the first, 0.118 for the second.

Going from CCATGGCG to CCAAAATC, the “PBM E-score” value falls from 0.186 to 0.095.

First: AGACGCCC
Second: GCGCCACA
The “PBM E-score” value of the first is lower: 0.0394 for the first, 0.0854 for the second.

Going from AAATTTTA to ATGTGCCA, the “PBM E-score” value falls from -0.00026 to -0.0589.

First: AATTACAG
Second: CCTATCCC
The “PBM E-score” value of the first is lower: -0.0292 for the first, 0.107 for the second.

First: CTTAAAGC
Second: CCACTGGA
The “PBM E-score” value of the first is higher: 0.0453 for the first, -0.0983 for the second.

Compared with ATCCTGAG, ACCCATCC is lower in “PBM E-score” value: 0.0135 for the first, -0.0966 for the second.

Going from CATTAGTA to AAGTGGGG, the “PBM E-score” value falls from 0.112 to -0.146.

Going from GAGCAATA to AGCACTTC, the “PBM E-score” value falls from -0.0524 to -0.121.

Going from TCGATAGA to TCATCAAA, the “PBM E-score” value falls from -0.00082 to -0.0353.

Compared with TCGTTAAA, CACATCTC is higher in “PBM E-score” value: -0.0308 for the first, 0.0719 for the second.

First: AGGCACCA
Second: AATCGATA
The “PBM E-score” value of the first is lower: -0.0878 for the first, 0.158 for the second.

Compared with ACCGTTAT, ACTCATCA is higher in “PBM E-score” value: -0.223 for the first, 0.0607 for the second.

Compared with CCTCCAAG, ATTAACAA is higher in “PBM E-score” value: -0.0442 for the first, 0.179 for the second.

Compared with GAACACCA, AGAGCCCG is lower in “PBM E-score” value: -0.0853 for the first, -0.136 for the second.

Compared with AATAGTTA, ACGCCTAC is lower in “PBM E-score” value: 0.0707 for the first, -0.191 for the second.

First: GAATGACC
Second: CCTTCCGC
The “PBM E-score” value of the first is higher: 0.00602 for the first, -0.0644 for the second.

Compared with GAGGATCC, GTCTCGTA is lower in “PBM E-score” value: 0.0757 for the first, -0.0651 for the second.

Compared with ACACATGC, AATCATGC is lower in “PBM E-score” value: -0.0391 for the first, -0.0765 for the second.

First: CTCAAGCA
Second: ATCACCTA
The “PBM E-score” value of the first is higher: -0.0465 for the first, -0.143 for the second.

Going from TAAACAGA to CATTCTGC, the “PBM E-score” value rises from 0.0397 to 0.13.

Compared with AAGTGGAG, AATACAAT is higher in “PBM E-score” value: -0.0175 for the first, 0.106 for the second.

First: AACGGTGA
Second: ATCCGTTC
The “PBM E-score” value of the first is lower: -0.221 for the first, 0.0535 for the second.

Compared with CACGACGA, CAAATTAA is higher in “PBM E-score” value: -0.0933 for the first, 0.0483 for the second.

First: ATGAGATC
Second: CAAAACGA
The “PBM E-score” value of the first is lower: 0.0358 for the first, 0.197 for the second.

First: AAGCCAAC
Second: AATTATAG
The “PBM E-score” value of the first is lower: 0.0383 for the first, 0.193 for the second.

Compared with GCGTATGA, AACCAATG is higher in “PBM E-score” value: -0.0972 for the first, 0.109 for the second.

Going from ATCAACAT to CTAGCGAG, the “PBM E-score” value falls from 0.0232 to -0.111.

Going from AGGTAAGA to ATTTTCAC, the “PBM E-score” value rises from -0.0459 to 0.0692.

Compared with TGCCTCCA, CAGCGTGC is higher in “PBM E-score” value: -0.18 for the first, -0.0898 for the second.

Going from CCAGTCCC to TTCGTCAA, the “PBM E-score” value falls from 0.145 to 0.0698.

Going from CCCCATGC to AAGAACGT, the “PBM E-score” value rises from -0.0199 to 0.147.

First: CTACTATC
Second: CAGACCCG
The “PBM E-score” value of the first is higher: 0.247 for the first, 0.147 for the second.

Going from ACGGGCAA to ATCAGTAC, the “PBM E-score” value rises from -0.0925 to 0.0614.

Compared with GTCTAAAC, CAATTCAG is higher in “PBM E-score” value: 0.102 for the first, 0.112 for the second.

First: CGATCGAC
Second: ATTCAATA
The “PBM E-score” value of the first is lower: 0.0314 for the first, 0.136 for the second.

Compared with TAGCATGA, TATTCTAA is lower in “PBM E-score” value: 0.149 for the first, 0.0849 for the second.

Going from TTCATCAA to AGGATAAG, the “PBM E-score” value falls from 0.202 to -0.0907.

Compared with CACCTGAG, CGAATATC is higher in “PBM E-score” value: -0.0648 for the first, 0.0529 for the second.

Going from GACCAGGA to TGGGTGAA, the “PBM E-score” value rises from 0.0236 to 0.152.

Going from GCGGCTAA to ACAGGAAT, the “PBM E-score” value falls from -0.0365 to -0.149.

Compared with ACCCCTCT, CGGCTTTC is higher in “PBM E-score” value: -0.141 for the first, -0.0703 for the second.

Going from AGCTAGAG to ACTCCTTC, the “PBM E-score” value falls from -0.0184 to -0.221.

Compared with ACCGTGTG, GAGGTCTA is higher in “PBM E-score” value: -0.0866 for the first, -0.0802 for the second.

First: AATTACTC
Second: CGCAATCC
The “PBM E-score” value of the first is higher: 0.177 for the first, 0.0872 for the second.

First: GTTAGGCA
Second: ACTGTCAG
The “PBM E-score” value of the first is lower: -0.146 for the first, 0.118 for the second.

First: CGTTGGCA
Second: AACATCGT
The “PBM E-score” value of the first is higher: 0.0637 for the first, 0.0292 for the second.

First: CTAGAGAC
Second: AACTACCG
The “PBM E-score” value of the first is lower: -0.218 for the first, -0.135 for the second.

Compared with CTCGGAAG, GACCTCTC is higher in “PBM E-score” value: -0.0167 for the first, 0.00025 for the second.

First: GATAAACC
Second: GGGGTTGA
The “PBM E-score” value of the first is higher: 0.174 for the first, 0.0292 for the second.

Going from ACATGTGC to CGGGTCGA, the “PBM E-score” value falls from -0.0218 to -0.181.

Compared with CCTACCGA, AAAGGGTG is higher in “PBM E-score” value: -0.159 for the first, 0.00635 for the second.

First: GATGCTGC
Second: ACGGATTG
The “PBM E-score” value of the first is lower: -0.253 for the first, 0.168 for the second.

First: GCATTGCA
Second: AAGGGCAC
The “PBM E-score” value of the first is higher: 0.14 for the first, -0.0552 for the second.

First: CGGAGTCC
Second: CGCGGCTA
The “PBM E-score” value of the first is lower: -0.1 for the first, -0.0766 for the second.

Compared with ACGCAACC, AGCTCATG is higher in “PBM E-score” value: -0.0246 for the first, 0.0635 for the second.

Going from CTCTAAAG to ACTCATAA, the “PBM E-score” value rises from -0.162 to 0.0387.

First: CTGACGCC
Second: AAAGGTAG
The “PBM E-score” value of the first is lower: -0.043 for the first, -0.0352 for the second.

First: CTGCCCCC
Second: ACCACCTA
The “PBM E-score” value of the first is lower: -0.326 for the first, 0.00251 for the second.

Going from ATCCCTAG to ACGCGGTC, the “PBM E-score” value falls from 0.11 to -0.0106.

Going from CACTGAAC to AACGAGCC, the “PBM E-score” value falls from 0.0899 to -0.02.

First: AGCTTGCC
Second: AGGACTCC
The “PBM E-score” value of the first is higher: -0.00562 for the first, -0.295 for the second.

Compared with CGCCCCAC, AGTATATA is higher in “PBM E-score” value: 0.0629 for the first, 0.327 for the second.

Going from GCGATGGA to CCACTAGA, the “PBM E-score” value falls from -0.0242 to -0.196.

Compared with CCGGCTAC, AGACTGTC is lower in “PBM E-score” value: -0.00754 for the first, -0.193 for the second.

Compared with ACGTGGAG, CCCACGAG is higher in “PBM E-score” value: -0.112 for the first, 0.167 for the second.

Going from CTTGCCTC to CCTCTTCG, the “PBM E-score” value rises from -0.0299 to 0.0152.
